# Measurements as given in US20160279221A1.
# Changes are numbered by the printed parent chain. These are yes or no findings as the source states them, for the method shown. For some of these results: Binding calls can cover weak binding; strength is not graded here.
# B1: monoclonal antibody 1E10 (antibody, V domains shown)
# VH: EVQLQESGAELAKPGASVKLSCKASGYTFTNYLMHWIKQRPGQGLEWIGYINHGSGYTNYNQKFIDRATLTADKSSSTAYMQLRSLTYEDSAVYYCVHGYFDVWGTGTTVTVSS
# VL: QIVLTQSPTIMSASPGEKVTMTCSASSSVTYMHWYQQKPGTSPKRWIYDTSKLASGVPARFSGSGSGTSYSLTISSMEAEDAATYYCHQRSSYPTFGGGTKLEIKR
# B2: monoclonal antibody 1B10 (antibody, V domains shown)
# VH: EVQLQESGPGLVQPSQSLSITCTVSGFSLNMYGVHWVRQSPGKGLEWLGVIWSGGTTDYNAAFISRLSINRDNSKSQVFFKMNSLQTDDTAIYYCVRNNGYYVDAMDYWGQGTSVAVSS
# VL: DVVMTQTPLSLPVSLGDQASISCRSSQSLVHSNGNTYLHWYLQRPGQSPKLLIYKVSNRFSGVPDRFSGSGSGTDFTLKISRVEAEDLGVYFCSQSTLGPTFGGGTKLEMQR
# B3: monoclonal antibody 4E8 (antibody, V domains shown)
# VH: B2 VH with G26D, N30I, T56S, N70S, R71K, T87A, V96A, A116T
# VL: B2 VL with S32N, R44K, S61F, L98H, G99V, M110I, Q111K
# B4: monoclonal antibody 4E11 (antibody, V domains shown)
# VH: EVQLQESGPGLVRPSQSLSITCTVSGFSLPLYGVHWVRQSPGKGLEWLGVIWSGGSTDYNAAFVSRLSISKDNSKSQVFFEMNSLQADDTATYYCARNNGYYVDAMDYWGQGTSVTVSS
# VL: B2 VL with R44K, Y54F, K79Q, V90F, L98H, G99V, M110I, Q111K
# Key:
# [1] = target: chimera Lin-D3 (linear domain-3 of P. falciparum AMA1 on P. berghei AMA1 scaffold) (Plasmodium berghei; Plasmodium falciparum); experiment: Western blot, linear domain chimera reactivity
# [2] = target: chimera Lin-D2 (linear domain-2 of P. falciparum AMA1 on P. berghei AMA1 scaffold) (Plasmodium berghei; Plasmodium falciparum); experiment: Western blot on chimeric proteins
# [3] = target: chimera Lin-D1 (linear domain-1 of P. falciparum AMA1 on P. berghei AMA1 scaffold) (Plasmodium falciparum; Plasmodium berghei); experiment: Western blot, linear domain chimera reactivity (cell printed once for the group)
binder,measurement,setting,value
B1,binding,[1],binds
B2,binding,[2],no binding
same,binding,[3],binds
B3,binding,[2],no binding
same,binding,[3],binds
B4,binding,[2],no binding
same,binding,[3],binds
